Measured values as given in PubChem BioAssay (NCATS).
The shares of active, inactive and inconclusive entries below differ from those in the screen. The source made the active and inactive calls. Calls come from the whole dose curve; as a rule, active = well fitted curve in either direction with a large enough effect (not every such curve was filed as active); inconclusive = small, poorly fitted or top-dose-only effect, or another doubt; inactive = flat fitted curve, though single readings scatter.

assay: Stat Signaling Pathway (AID 446); settings: ME-180 SIE beta-lactamase reporter, IL-6 stimulated, 5 h; at 7.69 µM (top of the series) unless noted;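 note: ME-180 cervical cancer cells given 40 pM IL-6 alongside compound; SIE-controlled beta-lactamase reporter measured as 460/530 nm FRET emission ratio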
Summary of the method: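 Screening format detects activators and inhibitors alike: ME-180 SIE-bla cells stimulated at 40 pM IL-6 for 5 hrs with compound, then dual-emission beta-lactamase read at 405 nm excitation.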
% is set by controls: 0 for no effect and ±100 for the full control effect.

SMILES | activity, negative = inhibition
COc1ccccc1C1/C(=C(/O)c2ccc(OC(C)C)cc2)C(=O)C(=O)N1c1cc(C)on1 (stereo not drawn) | inconclusive: -41.3% [inhibitor] [at 17.2 µM]
O=C(O)[C@@H]1CCCNC1 | inactive: 8.8% [at 17.2 µM]
CC(=O)C1=C(O)C(=O)N(c2ccc(S(N)(=O)=O)cc2)C1c1ccccc1F (stereo not drawn) | inactive: -0.593% [at 17.2 µM]
CN(CCCCCC(=O)/C=N/O)Cc1ccccc1 | inconclusive: 50.4% [activator] [at 17.2 µM]
CN(C)Cc1ccccc1-c1nc(NC2CCNCC2)c2ccccc2n1 | inconclusive: 107% [activator]
CCC1SC(N)=NC1=O (stereo not drawn) | inactive: -1.83% [at 17.2 µM]
COC(=O)c1cc2c(=O)n3cccc(C)c3nc2n(Cc2cccnc2)c1=N | inactive: 15.4% [at 17.2 µM]
Cc1cccc(OCc2nc(C)cc(=O)[nH]2)c1 | inconclusive: 6.23% [activator] [at 17.2 µM]
N/C(=N\O)c1cn([C@@H]2O[C@@H](CO)[C@H](O)[C@@H]2O)c2ncnc(NO)c12 | inconclusive: 50.6% [activator]
CCOC(=O)Cn1c(C(F)(F)F)nc2nc(Cl)c(Cl)nc21 | inconclusive: 3.99% [activator]
CC(=O)N[C@H]1C[C@@H]1c1ccccc1 | inactive: 12.8% [at 17.2 µM]
O=C(O)c1cc2sccc2s1 | inactive: 2.27% [at 17.2 µM]
Oc1ccc(Cn2c(-c3ccc(O)cc3)nc3ccccc32)cc1 | inconclusive: 2.67% [activator]

For reference, some entries already given:
SMILES | activity, negative = inhibition
CN(C)Cc1ccccc1-c1nc(NC2CCNCC2)c2ccccc2n1 | inconclusive: 107% [activator]
CCC1SC(N)=NC1=O (stereo not drawn) | inactive: -1.83% [at 17.2 µM]
